# Measured values: publication PMC2920317, “CHL1 Is a Selective Organizer of the Presynaptic Machinery Chaperoning the SNARE Complex” (PLoS ONE, 2010)
# Chains of the proteins cited; added tags and fusions are not shown. Lines headed by an entry give the natural chain unless they say otherwise; changes in a name come on top.
# UniProt P70232: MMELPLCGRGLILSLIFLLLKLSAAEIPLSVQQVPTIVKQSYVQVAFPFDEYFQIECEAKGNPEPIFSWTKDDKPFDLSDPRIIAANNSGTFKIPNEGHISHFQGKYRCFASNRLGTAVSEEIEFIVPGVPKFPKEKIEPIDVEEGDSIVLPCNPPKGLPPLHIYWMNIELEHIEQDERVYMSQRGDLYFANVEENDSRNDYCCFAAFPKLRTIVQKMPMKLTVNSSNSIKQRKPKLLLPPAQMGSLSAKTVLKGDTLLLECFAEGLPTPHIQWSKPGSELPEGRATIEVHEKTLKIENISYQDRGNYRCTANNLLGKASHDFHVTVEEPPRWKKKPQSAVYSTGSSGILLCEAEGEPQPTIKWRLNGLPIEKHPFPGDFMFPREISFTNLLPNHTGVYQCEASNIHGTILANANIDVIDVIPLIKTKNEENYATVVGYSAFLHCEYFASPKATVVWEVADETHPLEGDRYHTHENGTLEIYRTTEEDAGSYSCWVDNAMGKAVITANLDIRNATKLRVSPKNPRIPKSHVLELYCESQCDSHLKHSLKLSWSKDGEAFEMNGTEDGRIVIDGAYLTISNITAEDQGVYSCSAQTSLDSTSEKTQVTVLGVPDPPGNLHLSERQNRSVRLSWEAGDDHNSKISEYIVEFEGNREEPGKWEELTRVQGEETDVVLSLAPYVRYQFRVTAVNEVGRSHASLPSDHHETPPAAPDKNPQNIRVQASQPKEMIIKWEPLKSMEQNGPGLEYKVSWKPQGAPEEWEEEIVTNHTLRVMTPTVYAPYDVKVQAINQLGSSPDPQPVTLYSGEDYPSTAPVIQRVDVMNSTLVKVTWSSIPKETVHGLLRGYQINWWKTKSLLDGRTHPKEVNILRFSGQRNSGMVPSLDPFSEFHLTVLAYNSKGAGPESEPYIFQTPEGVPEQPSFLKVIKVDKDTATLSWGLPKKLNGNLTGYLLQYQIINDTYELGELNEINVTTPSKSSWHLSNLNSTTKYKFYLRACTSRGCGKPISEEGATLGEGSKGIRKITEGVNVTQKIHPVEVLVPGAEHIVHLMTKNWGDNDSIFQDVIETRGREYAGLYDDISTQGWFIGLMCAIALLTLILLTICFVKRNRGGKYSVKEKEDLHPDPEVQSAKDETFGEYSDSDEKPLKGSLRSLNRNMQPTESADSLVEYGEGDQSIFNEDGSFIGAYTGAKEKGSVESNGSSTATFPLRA
# UniProt P63017: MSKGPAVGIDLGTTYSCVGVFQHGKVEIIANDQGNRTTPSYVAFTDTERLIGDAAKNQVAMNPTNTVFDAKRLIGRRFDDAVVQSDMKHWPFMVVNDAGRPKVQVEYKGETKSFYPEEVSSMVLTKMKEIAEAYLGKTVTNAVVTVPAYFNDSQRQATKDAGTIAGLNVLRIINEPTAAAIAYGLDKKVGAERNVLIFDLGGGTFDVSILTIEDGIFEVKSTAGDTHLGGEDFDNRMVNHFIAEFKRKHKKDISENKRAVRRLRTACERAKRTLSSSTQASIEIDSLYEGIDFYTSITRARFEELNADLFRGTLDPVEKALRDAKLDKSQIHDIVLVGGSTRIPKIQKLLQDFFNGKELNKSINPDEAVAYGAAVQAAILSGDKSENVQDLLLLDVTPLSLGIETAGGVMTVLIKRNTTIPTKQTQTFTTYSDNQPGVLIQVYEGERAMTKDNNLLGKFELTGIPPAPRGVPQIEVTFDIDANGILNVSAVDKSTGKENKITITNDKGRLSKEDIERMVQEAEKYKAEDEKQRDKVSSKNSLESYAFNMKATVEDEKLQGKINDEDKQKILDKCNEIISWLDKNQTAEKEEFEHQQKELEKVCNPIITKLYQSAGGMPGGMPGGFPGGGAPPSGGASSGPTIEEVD
# UniProt Q8BJU0: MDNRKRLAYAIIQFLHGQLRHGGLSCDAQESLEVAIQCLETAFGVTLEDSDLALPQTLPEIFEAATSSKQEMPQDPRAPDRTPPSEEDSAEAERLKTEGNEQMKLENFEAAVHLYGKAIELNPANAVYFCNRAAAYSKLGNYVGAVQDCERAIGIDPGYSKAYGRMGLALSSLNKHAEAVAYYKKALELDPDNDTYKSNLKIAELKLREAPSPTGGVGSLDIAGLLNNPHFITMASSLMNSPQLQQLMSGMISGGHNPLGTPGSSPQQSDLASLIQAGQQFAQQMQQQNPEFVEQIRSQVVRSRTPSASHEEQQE
# UniProt P60879: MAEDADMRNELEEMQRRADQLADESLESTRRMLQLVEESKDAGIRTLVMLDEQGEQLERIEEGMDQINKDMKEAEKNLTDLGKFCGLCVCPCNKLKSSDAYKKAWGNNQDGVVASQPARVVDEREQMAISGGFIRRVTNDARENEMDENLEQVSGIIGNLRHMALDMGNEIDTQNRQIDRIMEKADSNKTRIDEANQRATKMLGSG
# UniProt P63044: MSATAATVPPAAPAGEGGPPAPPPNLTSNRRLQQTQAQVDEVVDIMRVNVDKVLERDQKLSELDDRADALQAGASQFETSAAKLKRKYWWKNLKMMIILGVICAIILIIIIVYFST
# These are yes or no findings as the source states them, for the method shown. For some of these results: A result given as binding can be weak or reduced; the word gives no strength. For some of these results: Sequences can lack the tags named with a protein.
# T1: GST-tagged CSP (UniProt P60904)
# T1 sequence: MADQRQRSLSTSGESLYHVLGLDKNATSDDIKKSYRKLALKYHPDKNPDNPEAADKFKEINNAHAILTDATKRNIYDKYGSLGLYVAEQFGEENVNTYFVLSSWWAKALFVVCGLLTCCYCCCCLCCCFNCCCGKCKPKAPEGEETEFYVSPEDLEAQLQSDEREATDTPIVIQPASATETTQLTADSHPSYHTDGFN
# T2: GST-tagged βSGT (UniProt Q8VD33)
# T2 sequence: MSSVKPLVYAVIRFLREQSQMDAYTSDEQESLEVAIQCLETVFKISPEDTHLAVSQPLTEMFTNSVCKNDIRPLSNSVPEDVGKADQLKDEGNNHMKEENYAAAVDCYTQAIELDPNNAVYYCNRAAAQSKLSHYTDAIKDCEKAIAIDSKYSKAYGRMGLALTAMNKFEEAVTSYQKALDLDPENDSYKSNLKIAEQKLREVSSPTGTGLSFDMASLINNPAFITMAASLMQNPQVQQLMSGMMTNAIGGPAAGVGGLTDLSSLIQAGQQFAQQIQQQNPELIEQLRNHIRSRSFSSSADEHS
# Legend:
# [1] = molecular target: CHL1ID with deletion of the C-terminal 19 amino acid stretch, GST-tagged (UniProt P70232); assay: pull-down; CHL1ID fragments immobilized on beads via the GST tag; Hsc70, CSP or αSGT in solution; Western blot; both purified
# [2] = molecular target: recombinant CHL1 intracellular domain (CHL1ID), His6-tagged (UniProt P70232); assay: dynamic light scattering; recombinant proteins mixed in solution; 20°C; 22 measurements per sample; radii of particles; both purified
# [3] = molecular target: T1, GST-tagged CSP; assay: pull-down; GST-tagged CSP immobilized on beads; mixture of Hsc70 and αSGT with or without CHL1ID in solution, in the presence of ADP or ATP; Western blot, optical density; both purified
# [4] = molecular target: T1, GST-tagged CSP; assay: pull-down; GST or GST-tagged Hsc70, CSP, αSGT, βSGT immobilized on beads; CHL1ID in solution; overnight at 4°C in PBS pH 7.5 with 3% BSA, 0.1% Tween 20, 1 mM ADP or ATP; Western blot; both purified
# [5] = molecular target: GST-tagged Hsc70 (UniProt P63017); assay: as above
# [6] = molecular target: GST-tagged αSGT (UniProt Q8BJU0); assay: as above
# [7] = molecular target: T2, GST-tagged βSGT; assay: as above
# [8] = molecular target: recombinant CHL1 intracellular domain (CHL1ID), His6-tagged (UniProt P70232); assay: ELISA; CHL1ID (1.9 µM) immobilized on plastic; SNAP25 (4 µM) or VAMP2 (6 µM) pre-treated by exposure to 42°C (non-native), overnight at 4°C in PBS, 0.05% Tween 20, 0.1% BSA; both purified
molecule,measurement,setting,value
His6-tagged αSGT (from UniProt Q8BJU0 1-315),binding,[1],no binding
same,binding,[2],binds
"recombinant CHL1 intracellular domain (CHL1ID), His6-tagged (from UniProt P70232) (domain or fragment)",binding,[3],binds
same,binding,[4],binds
same,binding,[5],binds
same,binding,[6],binds
same,binding,[7],no binding
recombinant SNAP25 (from UniProt P60879 1-206),binding,[8],binds
recombinant VAMP2 (from UniProt P63044 1-116),binding,[8],binds
"GST-tagged CSP (protein, UniProt P60904 1-198) MADQRQRSLSTSGESLYHVLGLDKNATSDDIKKSYRKLALKYHPDKNPDNPEAADKFKEINNAHAILTDATKRNIYDKYGSLGLYVAEQFGEENVNTYFVLSSWWAKALFVVCGLLTCCYCCCCLCCCFNCCCGKCKPKAPEGEETEFYVSPEDLEAQLQSDEREATDTPIVIQPASATETTQLTADSHPSYHTDGFN",binding,[2],binds
